# Source: patent US20230150920A1, “SALTS AND SOLID FORMS OF 4-BROMO-2,5-DIMETHOXYPHENETHYLAMINE” (priority 2021, published 2023)
# At least one compound was matched to its structure with a doubt left.
# Test system: Male Sprague-Dawley rats
# Experiment: Rat elevated zero-maze model of anxiety
# Format: in vivo
# Settings: ip 6 mg/kg, 30 min before 5-min test
# Source text: The rat zero-maze model is a refined alternative to the plus-maze, the most widely used animal model of anxiety, and consists of an elevated annular platform, divided equally into four quadrants. Two opposite quadrants are enclosed by Perspex walls on both the inner and the outer edges of the platform, while the remaining two opposite quadrants are open being enclosed only by a Perspex “lip”. Animals will show a preference for the closed areas, and avoidance of the open sections is assumed to stem from a rodent's natural aversion to open, exposed spaces. A reduction in the amount of activity on the open areas is considered to reflect an increase in anxiety (shepherd 1994). The ethologically-based behavior rearing was also assessed as an index of anxiety with a decrease in rearing indicative of an […] effect [(a) File 1985, Boissier 1976; (b) File, S. E. (1985). […]
# Subjects were weighed and tail marked before being injected. After a specified pre-treatment time, subjects were placed in a closed quadrant and a 5-min test period were recorded on videotape for subsequent analysis. […] Animals are scored as being in the open area when all four paws were in an open quadrant and in the closed area only when all four paws have passed over the open-closed divide. […]
# Data was analysed with Statistica software (Statsoft USA version 10.0). […]
structure (smiles),measurement,value
"CNC1=Nc2ccc(Cl)cc2C(c2ccccc2)=[N+]([O-])C1 [chlordiazepoxide, Chlordiazepoxide, reference compound]",percentage of time in the open arms (% TO),did not show significance over vehicle
